Source: doi:10.1101/679415
Results are given in words; binding and its absence hold for the method and conditions named. In cells and extracts the contact can be indirect. Some results given as binding are weak or reduced against the parent protein; the word gives no strength. Where a sequence is shown, tags or fusion partners need not be part of it.

Target: T1, FLAG-tagged C. elegans USP-46 (C. elegans) (UniProt P34547)
T1 sequence: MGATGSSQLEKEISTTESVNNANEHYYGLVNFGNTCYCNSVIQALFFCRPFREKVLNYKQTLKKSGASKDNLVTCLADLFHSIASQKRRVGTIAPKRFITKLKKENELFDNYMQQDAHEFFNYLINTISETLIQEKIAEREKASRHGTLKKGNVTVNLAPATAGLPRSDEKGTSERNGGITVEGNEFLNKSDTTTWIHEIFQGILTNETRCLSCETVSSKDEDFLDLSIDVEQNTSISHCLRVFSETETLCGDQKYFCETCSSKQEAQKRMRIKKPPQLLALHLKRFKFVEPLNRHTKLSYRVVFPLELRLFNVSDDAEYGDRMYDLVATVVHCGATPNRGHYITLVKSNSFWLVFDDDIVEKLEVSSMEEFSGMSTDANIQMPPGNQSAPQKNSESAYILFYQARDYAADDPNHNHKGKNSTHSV
Assay: co-IP

binding: binds
B1: Myc-WDR-48 (wild type, C. elegans) (protein, UniProt Q20059 1-683)
chain: MSSCVNTSQTGPKKKISFIIRDEHEYSNRSAVSALQYDAQNGRLFTGGSDTIIRTWSVPHHKDAFSARGGVRSPGKNSPVQYQGSLEQHTDWVNDMILCGHGKILISASNDTTVKVWNIERDNKHGFIDCIRTHKDYVSCLAYAPIVEKAVSASFDHNIFVYDINANFKTVNNLIGCKDSIYSLATTPNLSLVLGAGTEKCIRLFDPRTNEKIMKLRGHTDNVRALVVNDDGTRALSAGSDATIRLWDIGQQRCIATCIAHEEGVWTLQVDSSFTTVYSAGKDKMVVKTPLYDFTKSQLLFKEEAPVKKLLLSEKDNPVSLWVGTWKSDIKRWSIRPSAQLSIGGDEDGPSTSNANHSVSASSSPPVTFKYIRVKDQKGQQSTPELVIPGAPAIKKHAMLSDKRHVLTRDSDGNVALYDVLAARKIKDYGKRIFEEVVDENSRQVYIPSWFVVDSKSGMLQITLDELDALSSWLSSKDAGFDDNDRETKLNYGGMMLRSLFERWPPCKMTNVDAADADDVQKATLNFISLPEHTPLIICEGNGRPLYRLLVGDAGKEFEANELAQIAPMWVIDAIERNQLPKFNKMPFYLLPHPSTNPKQPKKDRLSATEMLQVKKVMEHVYEKILSTNDDITVGSIPLNQIHTKMEMYCNDQRLEPDMDLRTVKHLYWKQSGELLLHYKPVK
